These are yes or no findings as the source states them, for the method shown. Binding can be weak; no strength is given. Where a sequence is shown, tags or fusion partners need not be part of it.
Key:
GST-∆PcR CBX8 = experiment: pull-down
GST-PHC2b = experiment: pull-down

binding (GST-∆PcR CBX8): binds | binding (GST-PHC2b): binds
B1: FLAG-PKD1 (protein kinase D1) (enzyme, UniProt Q15139 1-912)
chain: MSAPPVLRPPSPLLPVAAAAAAAAAALVPGSGPGPAPFLAPVAAPVGGISFHLQIGLSREPVLLLQDSSGDYSLAHVREMACSIVDQKFPECGFYGMYDKILLFRHDPTSENILQLVKAASDIQEGDLIEVVLSASATFEDFQIRPHALFVHSYRAPAFCDHCGEMLWGLVRQGLKCEGCGLNYHKRCAFKIPNNCSGVRRRRLSNVSLTGVSTIRTSSAELSTSAPDEPLLQKSPSESFIGREKRSNSQSYIGRPIHLDKILMSKVKVPHTFVIHSYTRPTVCQYCKKLLKGLFRQGLQCKDCRFNCHKRCAPKVPNNCLGEVTINGDLLSPGAESDVVMEEGSDDNDSERNSGLMDDMEEAMVQDAEMAMAECQNDSGEMQDPDPDHEDANRTISPSTSNNIPLMRVVQSVKHTKRKSSTVMKEGWMVHYTSKDTLRKRHYWRLDSKCITLFQNDTGSRYYKEIPLSEILSLEPVKTSALIPNGANPHCFEITTANVVYYVGENVVNPSSPSPNNSVLTSGVGADVARMWEIAIQHALMPVIPKGSSVGTGTNLHRDISVSISVSNCQIQENVDISTVYQIFPDEVLGSGQFGIVYGGKHRKTGRDVAIKIIDKLRFPTKQESQLRNEVAILQNLHHPGVVNLECMFETPERVFVVMEKLHGDMLEMILSSEKGRLPEHITKFLITQILVALRHLHFKNIVHCDLKPENVLLASADPFPQVKLCDFGFARIIGEKSFRRSVVGTPAYLAPEVLRNKGYNRSLDMWSVGVIIYVSLSGTFPFNEDEDIHDQIQNAAFMYPPNPWKEISHEAIDLINNLLQVKMRKRYSVDKTLSHPWLQDYQTWLDLRELECKIGERYITHESDDLRWEKYAGEQGLQYPTHLINPSASHSDTPETEETEMKALGERVSIL

Reference: doi:10.1101/2020.08.09.242891 (bioRxiv, 2020)
